Assay results: the supplement of paper PMC10849652
Some of the results follow.

Amino acid sequences for entries named in this document (tags omitted). A change or cut given only in a name is not applied to a line headed by its entry.
UniProt Q9HB09: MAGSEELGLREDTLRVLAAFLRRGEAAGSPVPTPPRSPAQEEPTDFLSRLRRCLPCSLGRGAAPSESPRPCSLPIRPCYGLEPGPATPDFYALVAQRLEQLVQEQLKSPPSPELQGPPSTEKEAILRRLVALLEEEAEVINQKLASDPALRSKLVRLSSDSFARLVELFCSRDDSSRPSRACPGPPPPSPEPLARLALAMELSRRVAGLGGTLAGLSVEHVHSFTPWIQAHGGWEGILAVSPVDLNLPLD
UniProt O15382: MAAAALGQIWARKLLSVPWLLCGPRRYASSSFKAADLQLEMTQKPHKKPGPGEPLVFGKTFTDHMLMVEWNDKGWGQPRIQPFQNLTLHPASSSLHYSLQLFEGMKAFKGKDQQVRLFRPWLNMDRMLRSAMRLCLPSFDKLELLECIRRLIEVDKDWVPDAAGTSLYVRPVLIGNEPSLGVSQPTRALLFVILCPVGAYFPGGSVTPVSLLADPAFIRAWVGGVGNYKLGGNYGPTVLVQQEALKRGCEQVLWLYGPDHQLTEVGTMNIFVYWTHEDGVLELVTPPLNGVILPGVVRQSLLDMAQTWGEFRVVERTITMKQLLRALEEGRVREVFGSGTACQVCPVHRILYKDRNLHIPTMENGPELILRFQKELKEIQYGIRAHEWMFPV
UniProt P21953: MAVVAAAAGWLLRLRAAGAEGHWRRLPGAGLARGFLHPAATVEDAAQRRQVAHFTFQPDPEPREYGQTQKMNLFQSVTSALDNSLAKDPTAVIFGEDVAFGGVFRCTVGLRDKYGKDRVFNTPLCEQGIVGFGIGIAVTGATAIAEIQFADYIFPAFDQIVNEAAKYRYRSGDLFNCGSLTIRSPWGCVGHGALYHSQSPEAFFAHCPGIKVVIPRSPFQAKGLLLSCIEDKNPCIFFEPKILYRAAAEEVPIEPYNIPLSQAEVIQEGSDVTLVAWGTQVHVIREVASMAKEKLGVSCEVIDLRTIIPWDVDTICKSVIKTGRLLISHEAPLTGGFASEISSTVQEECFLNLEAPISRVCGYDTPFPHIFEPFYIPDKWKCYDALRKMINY
UniProt O75934: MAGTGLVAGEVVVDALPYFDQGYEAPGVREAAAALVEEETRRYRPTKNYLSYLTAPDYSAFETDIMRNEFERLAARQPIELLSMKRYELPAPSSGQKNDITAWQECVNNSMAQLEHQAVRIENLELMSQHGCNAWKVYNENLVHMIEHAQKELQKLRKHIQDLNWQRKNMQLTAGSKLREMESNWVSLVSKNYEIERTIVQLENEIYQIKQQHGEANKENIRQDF
UniProt Q14137: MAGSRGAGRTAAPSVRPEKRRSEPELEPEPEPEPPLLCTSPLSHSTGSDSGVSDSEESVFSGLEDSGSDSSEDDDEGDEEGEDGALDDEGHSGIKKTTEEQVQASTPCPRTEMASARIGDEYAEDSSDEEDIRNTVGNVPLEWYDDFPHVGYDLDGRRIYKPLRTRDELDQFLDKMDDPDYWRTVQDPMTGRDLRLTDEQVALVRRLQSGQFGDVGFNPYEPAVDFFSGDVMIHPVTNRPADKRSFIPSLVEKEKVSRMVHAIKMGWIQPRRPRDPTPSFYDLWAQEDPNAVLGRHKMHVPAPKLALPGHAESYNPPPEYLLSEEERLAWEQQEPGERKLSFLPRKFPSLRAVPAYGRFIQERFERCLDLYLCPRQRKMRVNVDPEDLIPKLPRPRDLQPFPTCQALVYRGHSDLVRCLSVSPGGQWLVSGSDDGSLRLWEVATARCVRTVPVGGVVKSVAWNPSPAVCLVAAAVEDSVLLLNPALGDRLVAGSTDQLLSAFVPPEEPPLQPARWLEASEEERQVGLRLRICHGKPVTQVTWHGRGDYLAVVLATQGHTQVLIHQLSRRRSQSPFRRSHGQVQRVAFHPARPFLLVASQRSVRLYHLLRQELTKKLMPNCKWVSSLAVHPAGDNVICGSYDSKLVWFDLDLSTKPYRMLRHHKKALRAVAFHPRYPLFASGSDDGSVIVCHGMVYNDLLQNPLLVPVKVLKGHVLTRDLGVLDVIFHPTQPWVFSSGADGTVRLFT
UniProt Q16611: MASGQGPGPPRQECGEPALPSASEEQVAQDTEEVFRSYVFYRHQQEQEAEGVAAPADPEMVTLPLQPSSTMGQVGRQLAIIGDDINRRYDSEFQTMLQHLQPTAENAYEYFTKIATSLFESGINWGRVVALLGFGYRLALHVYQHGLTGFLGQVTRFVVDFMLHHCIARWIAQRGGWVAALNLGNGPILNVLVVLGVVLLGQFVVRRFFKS
UniProt P55957: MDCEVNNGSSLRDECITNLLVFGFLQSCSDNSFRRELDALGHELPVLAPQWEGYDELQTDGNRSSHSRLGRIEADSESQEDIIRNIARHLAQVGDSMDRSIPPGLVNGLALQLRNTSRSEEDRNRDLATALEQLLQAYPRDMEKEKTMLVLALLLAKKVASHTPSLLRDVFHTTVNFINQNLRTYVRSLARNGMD
UniProt O95816: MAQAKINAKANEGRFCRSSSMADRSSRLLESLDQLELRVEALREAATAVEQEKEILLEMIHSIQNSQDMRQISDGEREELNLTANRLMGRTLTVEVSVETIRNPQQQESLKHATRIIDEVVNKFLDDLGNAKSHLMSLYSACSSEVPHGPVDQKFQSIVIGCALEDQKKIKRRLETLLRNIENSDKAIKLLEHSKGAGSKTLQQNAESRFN
UniProt Q9UHQ4: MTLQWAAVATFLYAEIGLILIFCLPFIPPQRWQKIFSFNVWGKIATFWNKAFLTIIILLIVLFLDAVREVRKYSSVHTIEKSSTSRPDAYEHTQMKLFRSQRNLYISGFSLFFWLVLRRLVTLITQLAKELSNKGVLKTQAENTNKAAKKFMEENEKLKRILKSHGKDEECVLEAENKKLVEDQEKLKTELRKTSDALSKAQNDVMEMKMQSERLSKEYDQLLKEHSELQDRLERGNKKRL
UniProt Q67FW5: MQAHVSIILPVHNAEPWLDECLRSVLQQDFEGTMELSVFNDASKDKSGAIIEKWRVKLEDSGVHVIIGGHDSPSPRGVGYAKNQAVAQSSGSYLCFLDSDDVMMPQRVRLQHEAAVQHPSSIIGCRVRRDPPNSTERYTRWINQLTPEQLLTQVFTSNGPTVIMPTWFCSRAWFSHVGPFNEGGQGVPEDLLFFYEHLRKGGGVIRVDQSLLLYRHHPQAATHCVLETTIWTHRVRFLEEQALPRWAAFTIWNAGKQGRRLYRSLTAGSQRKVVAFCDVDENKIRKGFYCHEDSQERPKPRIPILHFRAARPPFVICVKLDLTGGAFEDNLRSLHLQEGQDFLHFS
UniProt Q13535: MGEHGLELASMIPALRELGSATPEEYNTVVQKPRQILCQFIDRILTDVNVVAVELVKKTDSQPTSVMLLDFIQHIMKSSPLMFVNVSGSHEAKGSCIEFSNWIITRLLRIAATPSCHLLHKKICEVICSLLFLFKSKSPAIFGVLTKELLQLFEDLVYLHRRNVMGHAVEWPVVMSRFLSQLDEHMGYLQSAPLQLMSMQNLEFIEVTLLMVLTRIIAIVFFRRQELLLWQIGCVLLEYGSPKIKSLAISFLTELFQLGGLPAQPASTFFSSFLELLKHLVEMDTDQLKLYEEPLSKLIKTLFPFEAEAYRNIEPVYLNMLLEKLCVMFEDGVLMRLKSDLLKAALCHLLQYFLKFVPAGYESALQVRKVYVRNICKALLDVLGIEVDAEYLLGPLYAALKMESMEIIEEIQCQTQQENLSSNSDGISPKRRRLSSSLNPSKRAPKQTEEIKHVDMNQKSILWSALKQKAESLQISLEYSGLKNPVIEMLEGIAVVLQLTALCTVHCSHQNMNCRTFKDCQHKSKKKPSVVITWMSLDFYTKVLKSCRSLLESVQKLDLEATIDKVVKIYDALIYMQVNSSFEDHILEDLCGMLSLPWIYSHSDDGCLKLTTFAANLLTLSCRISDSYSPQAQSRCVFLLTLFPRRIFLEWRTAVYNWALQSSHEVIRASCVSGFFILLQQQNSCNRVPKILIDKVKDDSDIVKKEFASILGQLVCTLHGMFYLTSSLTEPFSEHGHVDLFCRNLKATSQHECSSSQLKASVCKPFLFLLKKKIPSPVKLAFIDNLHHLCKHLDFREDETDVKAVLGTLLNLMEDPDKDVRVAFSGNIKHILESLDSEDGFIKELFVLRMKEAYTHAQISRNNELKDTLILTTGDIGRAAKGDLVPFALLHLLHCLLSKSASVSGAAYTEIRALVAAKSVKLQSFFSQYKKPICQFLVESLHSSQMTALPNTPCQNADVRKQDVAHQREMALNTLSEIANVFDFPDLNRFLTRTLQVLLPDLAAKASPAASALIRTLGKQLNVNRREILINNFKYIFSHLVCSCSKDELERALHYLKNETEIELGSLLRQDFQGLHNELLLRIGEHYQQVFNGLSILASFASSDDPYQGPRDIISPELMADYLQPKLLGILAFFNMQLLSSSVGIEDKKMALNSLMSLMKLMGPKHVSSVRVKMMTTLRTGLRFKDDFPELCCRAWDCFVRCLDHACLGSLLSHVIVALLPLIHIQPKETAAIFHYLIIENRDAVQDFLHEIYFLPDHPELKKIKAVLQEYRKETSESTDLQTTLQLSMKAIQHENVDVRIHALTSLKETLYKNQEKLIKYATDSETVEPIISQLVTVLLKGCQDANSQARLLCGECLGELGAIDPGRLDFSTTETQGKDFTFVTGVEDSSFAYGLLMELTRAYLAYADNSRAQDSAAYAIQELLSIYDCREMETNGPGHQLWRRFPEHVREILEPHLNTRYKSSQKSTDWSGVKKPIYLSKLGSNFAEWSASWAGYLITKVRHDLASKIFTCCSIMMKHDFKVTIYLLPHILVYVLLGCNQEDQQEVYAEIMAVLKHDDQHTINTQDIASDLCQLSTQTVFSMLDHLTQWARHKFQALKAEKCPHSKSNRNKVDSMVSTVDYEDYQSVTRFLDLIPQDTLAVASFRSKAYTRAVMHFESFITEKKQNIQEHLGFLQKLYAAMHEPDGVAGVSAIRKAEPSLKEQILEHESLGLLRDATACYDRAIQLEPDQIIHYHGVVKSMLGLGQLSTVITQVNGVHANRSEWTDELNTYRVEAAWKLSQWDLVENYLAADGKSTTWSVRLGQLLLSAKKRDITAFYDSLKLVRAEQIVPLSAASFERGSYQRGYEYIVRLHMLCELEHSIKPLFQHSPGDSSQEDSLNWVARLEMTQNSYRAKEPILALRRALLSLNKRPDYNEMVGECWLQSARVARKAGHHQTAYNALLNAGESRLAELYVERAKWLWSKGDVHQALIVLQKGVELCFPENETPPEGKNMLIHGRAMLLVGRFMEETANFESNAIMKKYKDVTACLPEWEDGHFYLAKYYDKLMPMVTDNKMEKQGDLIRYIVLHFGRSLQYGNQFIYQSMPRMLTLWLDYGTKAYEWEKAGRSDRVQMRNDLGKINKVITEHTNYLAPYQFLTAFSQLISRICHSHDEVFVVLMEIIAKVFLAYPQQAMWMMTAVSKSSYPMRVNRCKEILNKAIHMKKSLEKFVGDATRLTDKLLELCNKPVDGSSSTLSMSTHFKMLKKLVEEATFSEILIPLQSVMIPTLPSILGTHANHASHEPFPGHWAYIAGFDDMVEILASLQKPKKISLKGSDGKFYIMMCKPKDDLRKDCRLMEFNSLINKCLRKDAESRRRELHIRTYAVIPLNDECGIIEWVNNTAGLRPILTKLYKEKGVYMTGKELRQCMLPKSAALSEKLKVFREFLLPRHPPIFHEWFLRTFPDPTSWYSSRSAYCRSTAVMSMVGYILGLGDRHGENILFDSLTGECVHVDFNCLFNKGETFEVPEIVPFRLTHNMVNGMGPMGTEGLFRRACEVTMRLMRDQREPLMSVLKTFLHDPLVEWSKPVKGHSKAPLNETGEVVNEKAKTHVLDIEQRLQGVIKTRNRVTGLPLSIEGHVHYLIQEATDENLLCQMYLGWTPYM
UniProt Q99933: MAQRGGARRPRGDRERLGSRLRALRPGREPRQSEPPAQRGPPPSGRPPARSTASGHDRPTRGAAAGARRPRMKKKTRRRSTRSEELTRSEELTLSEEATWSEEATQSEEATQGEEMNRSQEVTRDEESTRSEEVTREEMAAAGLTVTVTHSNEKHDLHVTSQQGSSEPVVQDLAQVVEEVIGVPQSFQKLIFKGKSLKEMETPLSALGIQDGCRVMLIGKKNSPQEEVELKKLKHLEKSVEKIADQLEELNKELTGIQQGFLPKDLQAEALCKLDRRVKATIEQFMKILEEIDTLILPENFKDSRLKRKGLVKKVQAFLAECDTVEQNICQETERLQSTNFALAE
UniProt P53004: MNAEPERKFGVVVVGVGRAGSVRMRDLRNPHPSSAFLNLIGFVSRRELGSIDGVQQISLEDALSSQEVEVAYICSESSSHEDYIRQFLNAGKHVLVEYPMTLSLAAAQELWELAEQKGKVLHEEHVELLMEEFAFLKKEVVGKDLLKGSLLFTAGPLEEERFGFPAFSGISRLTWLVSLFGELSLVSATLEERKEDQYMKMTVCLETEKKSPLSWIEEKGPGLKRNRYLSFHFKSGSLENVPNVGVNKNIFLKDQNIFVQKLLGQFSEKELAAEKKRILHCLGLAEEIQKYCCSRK
UniProt Q9H3K6: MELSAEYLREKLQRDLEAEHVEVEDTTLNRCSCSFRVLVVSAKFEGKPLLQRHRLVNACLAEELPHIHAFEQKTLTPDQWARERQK

Compound: Cc1nc(Nc2n[nH]c3c2CN(C(=O)N[C@H](CN(C)C)c2ccccc2)C3(C)C)c2sccc2n1
Assay: log2 fold change, soluble protein after heating vs DMSO (PISA); higher = thermal stabilisation; K562 cells, 10 uM, 30 min; active = over 0.2 and 3.5 SD of the protein, either way, in both replicates (recomputed)
In short: (§1)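 Aliquots of K562 cells (2×10^6 cells/mL) treated with 10 μM compound for 30 min were heated for 3 min over 48°C-58°C. After pooling and extraction in PBS with 0.5% NP-40 at 4°C, soluble protein from a 21,000xg, 90 min spin was quantified by TMTpro 16plex LC-MS/MS with channel sums equalised. Thermal stability is expressed against control samples, from duplicates, as a log2 fold change.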

log2 fold change, inactive:
BCL2L12 (UniProt Q9HB09) -0.174
BCAT2 (UniProt O15382) -0.024
BCKDHB (UniProt P21953) 0.118
BCAS2 (UniProt O75934) 0.033
BOP1 (UniProt Q14137) -0.159
BAK1 (UniProt Q16611) -0.011
BID isoform 2 (UniProt P55957) -0.006
BAG2 (UniProt O95816) -0.014
BCAP29 isoform 2 (UniProt Q9UHQ4) 0.035
B3GNTL1 (UniProt Q67FW5) 0.159

Compound: Cc1nc(Nc2ncc(C(=O)Nc3c(C)cccc3Cl)s2)cc(N2CCN(CCO)CC2)n1 [dasatinib]
Assay: as above
In short: as §1

log2 fold change, inactive:
ATR (UniProt Q13535) -0.123
BRD3 (UniProt Q15059) -0.319
BRIP1 (UniProt Q9BX63) -0.09
B2M (UniProt P61769) 0.047
BAG4 (UniProt O95429) 0.001
ATRIP (UniProt Q8WXE1) 0.033
BAG1 (UniProt Q99933) -0.022
BLOC1S4 (UniProt Q9NUP1) -0.048
BAX isoform 2 (UniProt Q07812) 0.002
ATRN (UniProt O75882) -0.047
BCAP31 isoform 2 (UniProt P51572) 0.058
BLVRA (UniProt P53004) -0.107
BPGM (UniProt P07738) 0.044
BLOC1S3 (UniProt Q6QNY0) -0.051
ATRAID isoform 3 (UniProt Q6UW56) 0.057
ATXN2L (UniProt Q8WWM7) -0.004
BOLA2 (UniProt Q9H3K6) -0.037
B4GAT1 (UniProt O43505) -0.012
BABAM2 (UniProt Q9NXR7) 0.052
BRIX1 (UniProt Q8TDN6) 0.109
BCL10 (UniProt O95999) 0.013
BROX (UniProt Q5VW32) -0.12
BBC3 (UniProt Q9BXH1) 0.088
BCL2L12 (UniProt Q9HB09) 0.088
BCAT2 (UniProt O15382) 0.055
BCKDHB (UniProt P21953) -0.071
BCAS2 (UniProt O75934) -0.032
BOP1 (UniProt Q14137) 0.02
BAK1 (UniProt Q16611) 0.084
BID isoform 2 (UniProt P55957) 0.018
BAG2 (UniProt O95816) 0.066
BCAP29 isoform 2 (UniProt Q9UHQ4) 0.154
B3GNTL1 (UniProt Q67FW5) 0.036

Compound: Cc1ncc(-c2ccnc(Nc3ccc(S(C)(=O)=O)cc3)n2)n1C(C)C
Assay: as above
In short: as §1

log2 fold change, inactive:
ATR (UniProt Q13535) -0.054
BRD3 (UniProt Q15059) -0.138
BRIP1 (UniProt Q9BX63) -0.071
B2M (UniProt P61769) 0.004
BAG4 (UniProt O95429) -0.051
ATRIP (UniProt Q8WXE1) -0.058
BAG1 (UniProt Q99933) 0.021
BLOC1S4 (UniProt Q9NUP1) -0.014
BAX isoform 2 (UniProt Q07812) -0.024
ATRN (UniProt O75882) 0
BCAP31 isoform 2 (UniProt P51572) -0.022
BLVRA (UniProt P53004) -0.062
BPGM (UniProt P07738) -0.034
BLOC1S3 (UniProt Q6QNY0) -0.022
ATRAID isoform 3 (UniProt Q6UW56) -0.103
ATXN2L (UniProt Q8WWM7) -0.016
BOLA2 (UniProt Q9H3K6) 0.017
B4GAT1 (UniProt O43505) -0.051
BABAM2 (UniProt Q9NXR7) 0.039
BRIX1 (UniProt Q8TDN6) -0.013
BCL10 (UniProt O95999) -0.026
BROX (UniProt Q5VW32) 0.045
BBC3 (UniProt Q9BXH1) 0.011
BCL2L12 (UniProt Q9HB09) 0.034
BCAT2 (UniProt O15382) -0.015
BCKDHB (UniProt P21953) -0.041
BCAS2 (UniProt O75934) 0.048
BOP1 (UniProt Q14137) -0.122
BAK1 (UniProt Q16611) -0.042
BID isoform 2 (UniProt P55957) 0.005
BAG2 (UniProt O95816) -0.014
BCAP29 isoform 2 (UniProt Q9UHQ4) -0.018
B3GNTL1 (UniProt Q67FW5) 0.017
